# PubChem BioAssay AID1259308 – NCATS – 2017
# Purpose: 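Genes whose loss raises luciferase production in HEK293 cells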 (primary screen)
# Cell system: human HEK293 embryonic kidney cells stably expressing firefly luciferase (HEK-CMV-Luc2-Hygro)
# Knock-down reagent: single siRNA against human genes, 0.8 pmol siRNA per well
# Timing: 72 h
# Measured: 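Luciferase light (ONE-Glo) measured on one replicate plate set and viability (CellTiter-Glo) on the other, scaled to a negative control siRNA, with robust z-scores and luciferase per cell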
# Direction: total luciferase, z-score and total luciferase, % of control: higher = more reporter protein produced
# Hit rule: 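An siRNA counts as active if its total luciferase robust z-score exceeds 3; genes with two or more such siRNAs out of three were retested with fresh siRNAs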
# Calls: active = raised luciferase; inactive = no rise
# In all, the deposit lists about 59,000 reagents; this is an unselected part. Over the whole deposit, about 1,510 (2.6%) got an active call. 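Calls use total luciferase alone and ignore viability, so some active siRNAs may act by altering cell number.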 Reagents against one gene are numbered here. Further read-outs or replicates are left out here. Reagent sequences are not shown.
gene knocked down,reagent no.,"total luciferase, z-score","total luciferase, % of control",call
PHTF1 (GeneID 10745),1,-0.365,74.6,inactive
PHTF1 (GeneID 10745),2,3.01,142,active
PHTF1 (GeneID 10745),3,-0.0267,81.4,inactive
VWA8 (GeneID 23078),1,1.23,106,inactive
VWA8 (GeneID 23078),2,0.165,85.2,inactive
VWA8 (GeneID 23078),3,0.553,92.9,inactive
FBXL2 (GeneID 25827),1,3.15,145,active
FBXL2 (GeneID 25827),2,-0.727,67.4,inactive
FBXL2 (GeneID 25827),3,0.742,96.6,inactive
LYPLAL1-DT (GeneID 643723),1,0.0901,83.7,inactive
LYPLAL1-DT (GeneID 643723),2,-0.832,65.3,inactive
LYPLAL1-DT (GeneID 643723),3,-0.394,74.1,inactive
SAMM50 (GeneID 25813),1,-0.424,73.5,inactive
SAMM50 (GeneID 25813),2,0.32,88.3,inactive
SAMM50 (GeneID 25813),3,0.18,85.5,inactive
EXOSC1 (GeneID 51013),1,-0.164,78.6,inactive
EXOSC1 (GeneID 51013),2,-0.419,73.5,inactive
EXOSC1 (GeneID 51013),3,0.973,101,inactive
GMEB1 (GeneID 10691),1,-1.25,57,inactive
GMEB1 (GeneID 10691),2,1.03,102,inactive
GMEB1 (GeneID 10691),3,-0.0414,81.1,inactive
RPS29P3 (GeneID 642892),1,0.479,91.4,inactive
RPS29P3 (GeneID 642892),2,-1.63,49.5,inactive
RPS29P3 (GeneID 642892),3,-2.69,28.5,inactive
OXCT2 (GeneID 64064),1,1.75,117,inactive
OXCT2 (GeneID 64064),2,-0.256,76.8,inactive
OXCT2 (GeneID 64064),3,-0.997,62.1,inactive
TMEM52 (GeneID 339456),1,2.53,132,inactive
TMEM52 (GeneID 339456),2,0.0278,82.4,inactive
TMEM52 (GeneID 339456),3,1.52,112,inactive
SERPINE2 (GeneID 5270),1,-0.184,78.2,inactive
SERPINE2 (GeneID 5270),2,2.44,130,inactive
SERPINE2 (GeneID 5270),3,-0.266,76.6,inactive
TAS2R40 (GeneID 259286),1,-0.449,73,inactive
TAS2R40 (GeneID 259286),2,1.52,112,inactive
TAS2R40 (GeneID 259286),3,2.49,131,inactive
TOP3A (GeneID 7156),1,0.573,93.3,inactive
TOP3A (GeneID 7156),2,-1.02,61.6,inactive
TOP3A (GeneID 7156),3,4.99,181,active

Entries listed so far with an active call:
gene knocked down,reagent no.,"total luciferase, z-score","total luciferase, % of control",call
PHTF1 (GeneID 10745),2,3.01,142,active
FBXL2 (GeneID 25827),1,3.15,145,active
TOP3A (GeneID 7156),3,4.99,181,active

Further records follow:
gene knocked down,reagent no.,"total luciferase, z-score","total luciferase, % of control",call
MTERF4 (GeneID 130916),1,0.205,86,inactive
MTERF4 (GeneID 130916),2,0.205,86,inactive
MTERF4 (GeneID 130916),3,0.557,93,inactive
ZNF433 (GeneID 163059),1,-0.817,65.6,inactive
ZNF433 (GeneID 163059),2,1.74,117,inactive
ZNF433 (GeneID 163059),3,-0.444,73,inactive
APOL6 (GeneID 80830),1,-1.44,53.3,inactive
APOL6 (GeneID 80830),2,2.75,137,inactive
APOL6 (GeneID 80830),3,-0.882,64.3,inactive
DDX12P (GeneID 440081),1,0.425,90.3,inactive
DDX12P (GeneID 440081),2,1.16,105,inactive
DDX12P (GeneID 440081),3,1.53,112,inactive
TSPAN1 (GeneID 10103),1,-0.384,74.2,inactive
TSPAN1 (GeneID 10103),2,0.975,101,inactive
TSPAN1 (GeneID 10103),3,0.596,93.7,inactive
BICRA (GeneID 29998),1,0.59,93.6,inactive
BICRA (GeneID 29998),2,-0.905,63.9,inactive
BICRA (GeneID 29998),3,-0.948,63,inactive
PRDM8 (GeneID 56978),1,1.15,105,inactive
PRDM8 (GeneID 56978),2,0.0537,83,inactive
PRDM8 (GeneID 56978),3,-1.85,45,inactive
TIA1 (GeneID 7072),1,-1.51,51.9,inactive
TIA1 (GeneID 7072),2,0.376,89.4,inactive
TIA1 (GeneID 7072),3,1.58,113,inactive
TM6SF1 (GeneID 53346),1,-1.45,53.1,inactive
TM6SF1 (GeneID 53346),2,0.125,84.4,inactive
TM6SF1 (GeneID 53346),3,-0.281,76.3,inactive
MBOAT2 (GeneID 129642),1,1.24,107,inactive
MBOAT2 (GeneID 129642),2,0.0296,82.5,inactive
MBOAT2 (GeneID 129642),3,-0.508,71.8,inactive
MAST2 (GeneID 23139),1,1.2,106,inactive
MAST2 (GeneID 23139),2,0.918,100,inactive
MAST2 (GeneID 23139),3,-0.126,79.4,inactive
B3GALNT2 (GeneID 148789),1,-1.56,50.9,inactive
B3GALNT2 (GeneID 148789),2,0.203,85.9,inactive
B3GALNT2 (GeneID 148789),3,-0.858,64.8,inactive
